Values of other authors in patent publication US20140314672A1, “NANOPARTICLE THERAPEUTIC AGENTS, THEIR FORMULATIONS, AND METHODS OF THEIR USE” (IGDRASOL, Inc., priority 2013, published 2014).

Conditions: water

aqueous solubility: virtually insoluble in water
Compound: CC(=O)O[C@H]1C(=O)[C@@]2(C)[C@H]([C@H](OC(=O)c3ccccc3)[C@]3(O)C[C@H](OC(=O)[C@H](O)[C@@H](NC(=O)c4ccccc4)c4ccccc4)C(C)=C1C3(C)C)[C@]1(OC(C)=O)CO[C@@H]1C[C@@H]2O [Paclitaxel]
